{
  "sequences": {"note": "Chains of the proteins cited; added tags and fusions are not shown.", "UniProt Q9C026": "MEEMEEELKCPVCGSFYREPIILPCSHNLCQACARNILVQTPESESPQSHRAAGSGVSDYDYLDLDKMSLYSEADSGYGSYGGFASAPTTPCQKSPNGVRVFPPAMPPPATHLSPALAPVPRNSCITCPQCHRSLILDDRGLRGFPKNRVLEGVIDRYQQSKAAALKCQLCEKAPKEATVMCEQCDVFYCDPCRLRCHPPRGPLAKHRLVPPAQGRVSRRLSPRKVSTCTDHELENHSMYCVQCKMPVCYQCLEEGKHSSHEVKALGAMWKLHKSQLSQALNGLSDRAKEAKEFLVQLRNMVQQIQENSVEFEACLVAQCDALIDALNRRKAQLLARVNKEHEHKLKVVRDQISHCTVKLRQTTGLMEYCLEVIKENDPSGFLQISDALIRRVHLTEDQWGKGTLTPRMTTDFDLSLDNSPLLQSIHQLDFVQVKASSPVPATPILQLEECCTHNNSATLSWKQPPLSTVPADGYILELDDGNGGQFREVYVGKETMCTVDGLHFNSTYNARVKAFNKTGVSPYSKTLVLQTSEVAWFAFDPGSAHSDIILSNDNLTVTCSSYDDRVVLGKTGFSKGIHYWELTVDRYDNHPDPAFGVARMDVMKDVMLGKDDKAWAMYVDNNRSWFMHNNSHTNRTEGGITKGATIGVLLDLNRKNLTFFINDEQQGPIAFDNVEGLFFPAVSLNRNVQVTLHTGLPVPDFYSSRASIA"},
  "source": "paper PMC10139803",
  "key": {"[1]": {"biological_target": "TRIM9 (Tripartite Motif Containing 9) (UniProt Q9C026)", "test": "co-IP; KYSE-410 cell lysate; supernatants incubated with antibody and A/G Sepharose beads at 4°C overnight, washed three times, Western blot; bait not stated"}, "FLAG-TRIM9": {"biological_target": "FLAG-TRIM9 (UniProt Q9C026)", "test": "co-IP; HEK-293T cell lysate; supernatants incubated with 5 μg anti-FLAG and A/G Sepharose beads at 4°C overnight, washed three times, Western blot"}},
  "note": "These are yes or no findings as the source states them, for the method shown. Binding seen in cells or lysates may run through a third protein. Some results given as binding are weak or reduced against the parent protein; the word gives no strength.",
  "data": [
    {"binder": "ZEB1 (zinc finger E-box binding homeobox 1) (protein, UniProt P37275 1-1124) MADGPRCKRRKQANPRRNNVTNYNTVVETNSDSDDEDKLHIVEEESVTDAADCEGVPEDDLPTDQTVLPGRSSEREGNAKNCWEDDRKEGQEILGPEAQADEAGCTVKDDECESDAENEQNHDPNVEEFLQQQDTAVIFPEAPEEDQRQGTPEASGHDENGTPDAFSQLLTCPYCDRGYKRFTSLKEHIKYRHEKNEDNFSCSLCSYTFAYRTQLERHMTSHKSGRDQRHVTQSGCNRKFKCTECGKAFKYKHHLKEHLRIHSGEKPYECPNCKKRFSHSGSYSSHISSKKCISLIPVNGRPRTGLKTSQCSSPSLSASPGSPTRPQIRQKIENKPLQEQLSVNQIKTEPVDYEFKPIVVASGINCSTPLQNGVFTGGGPLQATSSPQGMVQAVVLPTVGLVSPISINLSDIQNVLKVAVDGNVIRQVLENNQANLASKEQETINASPIQQGGHSVISAISLPLVDQDGTTKIIINYSLEQPSQLQVVPQNLKKENPVATNSCKSEKLPEDLTVKSEKDKSFEGGVNDSTCLLCDDCPGDINALPELKHYDLKQPTQPPPLPAAEAEKPESSVSSATGDGNLSPSQPPLKNLLSLLKAYYALNAQPSAEELSKIADSVNLPLDVVKKWFEKMQAGQISVQSSEPSSPEPGKVNIPAKNNDQPQSANANEPQDSTVNLQSPLKMTNSPVLPVGSTTNGSRSSTPSPSPLNLSSSRNTQGYLYTAEGAQEEPQVEPLDLSLPKQQGELLERSTITSVYQNSVYSVQEEPLNLSCAKKEPQKDSCVTDSEPVVNVIPPSANPINIAIPTVTAQLPTIVAIADQNSVPCLRALAANKQTILIPQVAYTYSTTVSPAVQEPPLKVIQPNGNQDERQDTSSEGVSNVEDQNDSDSTPPKKKMRKTENGMYACDLCDKIFQKSSSLLRHKYEHTGKRPHECGICKKAFKHKHHLIEHMRLHSGEKPYQCDKCGKRFSHSGSYSQHMNHRYSYCKREAEERDSTEQEEAGPEILSNEHVGARASPSQGDSDERESLTREEDEDSEKEEEEEDKEMEELQEEKECEKPQGDEEEEEEEEEVEEEEVEEAENEGEEAKTEGLMKDDRAESQASSLGQKVGESSEQVSEEKTNEA", "values": [
      {"measurement": "binding", "setting": "[1]", "result": "binds"},
      {"measurement": "binding", "setting": "FLAG-TRIM9", "result": "binds"}
    ]}
  ]
}
